Some of the results follow. The calls rarely recur for the same compound in another form.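 Kinases were expressed as nanoluciferase fusions in K562 cells and luminescence was read every 4 h between 2 and 18 h as percent of control, DMSO set to 100% and a positive control to 0%. A time point counts as decreased when the signal drops significantly (2 sigma). The hit call is the authors' own, does not follow from the count of time points alone, and its rule is not shown.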
Experiments:
Test in all cases: kinase-Nluc reporter destabilization hit call (1 = scored as downregulated) (binary); higher = compound decreases kinase abundance
Settings in all cases: K562; 2-18 h
[1] = target: IRAK3 (UniProt Q9Y616)
[2] = target: JAK1 (UniProt P23458)
[3] = target: LCK (UniProt P06239)
[4] = target: LIMK1 (UniProt P53667)
[5] = target: LIMK2 (UniProt P53671)
[6] = target: LMTK2 (UniProt Q8IWU2)
[7] = target: LYN (UniProt P07948)
[8] = target: MAP2K1 (UniProt Q02750)
[9] = target: MAP2K2 (UniProt P36507)
[10] = target: MAP4K2 (UniProt Q12851)

By UniProt entry, the sequences of proteins in these tests, tags left out. Where a name states a change or a piece, a line headed by the entry shows the natural chain unless it says otherwise.
UniProt Q9Y616: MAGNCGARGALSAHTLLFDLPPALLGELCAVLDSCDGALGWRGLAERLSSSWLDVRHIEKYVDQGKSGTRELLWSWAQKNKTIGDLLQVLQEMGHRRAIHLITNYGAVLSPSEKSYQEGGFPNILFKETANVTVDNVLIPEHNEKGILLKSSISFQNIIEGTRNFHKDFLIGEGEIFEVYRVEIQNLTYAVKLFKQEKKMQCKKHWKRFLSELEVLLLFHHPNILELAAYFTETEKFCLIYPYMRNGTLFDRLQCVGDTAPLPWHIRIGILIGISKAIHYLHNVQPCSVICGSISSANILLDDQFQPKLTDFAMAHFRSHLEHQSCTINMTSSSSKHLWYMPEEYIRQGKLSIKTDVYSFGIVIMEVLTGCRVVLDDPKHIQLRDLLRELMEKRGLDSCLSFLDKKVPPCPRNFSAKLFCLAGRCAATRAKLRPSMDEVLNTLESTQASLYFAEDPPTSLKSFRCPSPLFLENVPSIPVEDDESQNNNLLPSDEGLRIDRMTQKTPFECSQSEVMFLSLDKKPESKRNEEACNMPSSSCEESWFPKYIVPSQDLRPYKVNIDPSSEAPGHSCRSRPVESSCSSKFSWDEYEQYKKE
UniProt P23458: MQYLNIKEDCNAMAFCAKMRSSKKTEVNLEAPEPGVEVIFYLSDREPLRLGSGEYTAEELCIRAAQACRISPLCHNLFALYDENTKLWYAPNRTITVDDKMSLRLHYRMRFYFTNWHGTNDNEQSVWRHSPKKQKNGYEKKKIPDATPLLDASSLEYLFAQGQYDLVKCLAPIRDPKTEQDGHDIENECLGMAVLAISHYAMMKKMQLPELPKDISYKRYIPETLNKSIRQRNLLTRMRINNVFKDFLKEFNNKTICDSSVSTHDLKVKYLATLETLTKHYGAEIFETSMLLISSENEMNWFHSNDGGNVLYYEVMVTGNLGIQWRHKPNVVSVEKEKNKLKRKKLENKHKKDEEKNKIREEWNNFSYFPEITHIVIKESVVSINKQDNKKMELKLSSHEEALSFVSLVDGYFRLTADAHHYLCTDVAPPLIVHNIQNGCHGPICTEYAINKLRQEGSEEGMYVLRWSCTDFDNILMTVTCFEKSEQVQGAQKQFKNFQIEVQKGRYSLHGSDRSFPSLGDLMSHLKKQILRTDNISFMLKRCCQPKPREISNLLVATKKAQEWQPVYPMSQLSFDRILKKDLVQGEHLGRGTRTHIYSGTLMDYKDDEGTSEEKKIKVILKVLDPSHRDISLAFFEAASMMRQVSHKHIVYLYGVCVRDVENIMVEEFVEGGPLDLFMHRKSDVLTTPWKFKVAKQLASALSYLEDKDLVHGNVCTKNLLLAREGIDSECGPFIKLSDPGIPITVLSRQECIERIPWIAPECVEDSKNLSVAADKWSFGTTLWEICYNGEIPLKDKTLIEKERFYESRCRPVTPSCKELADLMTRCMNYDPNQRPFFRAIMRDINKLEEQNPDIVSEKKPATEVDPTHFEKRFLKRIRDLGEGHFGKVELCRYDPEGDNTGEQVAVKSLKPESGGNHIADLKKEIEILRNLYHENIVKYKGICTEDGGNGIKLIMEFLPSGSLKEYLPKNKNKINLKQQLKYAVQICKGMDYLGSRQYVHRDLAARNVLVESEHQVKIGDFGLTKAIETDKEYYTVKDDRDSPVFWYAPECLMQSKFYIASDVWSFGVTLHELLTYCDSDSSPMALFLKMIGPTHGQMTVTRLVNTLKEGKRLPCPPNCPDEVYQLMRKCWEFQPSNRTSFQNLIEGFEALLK
UniProt P06239: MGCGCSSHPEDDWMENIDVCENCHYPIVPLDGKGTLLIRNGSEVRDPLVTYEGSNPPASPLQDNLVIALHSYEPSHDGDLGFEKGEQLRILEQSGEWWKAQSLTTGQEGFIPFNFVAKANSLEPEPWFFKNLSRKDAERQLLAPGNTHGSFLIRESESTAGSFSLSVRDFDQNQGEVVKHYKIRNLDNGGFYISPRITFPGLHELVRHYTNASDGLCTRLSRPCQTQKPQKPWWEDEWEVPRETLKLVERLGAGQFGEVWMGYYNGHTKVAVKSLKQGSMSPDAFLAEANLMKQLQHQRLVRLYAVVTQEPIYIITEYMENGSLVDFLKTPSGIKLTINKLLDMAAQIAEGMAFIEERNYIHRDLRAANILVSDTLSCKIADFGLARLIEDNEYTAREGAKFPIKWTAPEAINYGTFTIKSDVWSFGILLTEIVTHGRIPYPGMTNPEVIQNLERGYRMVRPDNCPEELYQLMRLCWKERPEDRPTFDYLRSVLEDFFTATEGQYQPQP
UniProt P53667: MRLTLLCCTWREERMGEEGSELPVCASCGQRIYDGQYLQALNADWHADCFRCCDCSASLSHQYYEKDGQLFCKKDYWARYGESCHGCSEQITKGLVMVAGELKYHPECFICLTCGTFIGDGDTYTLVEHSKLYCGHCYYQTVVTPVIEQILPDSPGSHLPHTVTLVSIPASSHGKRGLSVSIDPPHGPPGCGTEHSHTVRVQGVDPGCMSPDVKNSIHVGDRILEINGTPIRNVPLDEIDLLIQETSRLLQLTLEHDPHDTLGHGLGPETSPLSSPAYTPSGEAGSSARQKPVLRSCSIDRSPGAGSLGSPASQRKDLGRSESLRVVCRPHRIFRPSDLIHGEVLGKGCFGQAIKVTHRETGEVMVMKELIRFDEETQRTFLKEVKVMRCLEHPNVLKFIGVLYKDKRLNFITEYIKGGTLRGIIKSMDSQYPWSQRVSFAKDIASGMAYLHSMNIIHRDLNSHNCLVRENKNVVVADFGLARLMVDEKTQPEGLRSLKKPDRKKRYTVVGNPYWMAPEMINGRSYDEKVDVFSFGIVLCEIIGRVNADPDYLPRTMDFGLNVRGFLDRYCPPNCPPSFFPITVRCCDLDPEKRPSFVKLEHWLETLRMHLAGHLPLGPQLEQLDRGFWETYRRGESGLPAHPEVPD
UniProt P53671: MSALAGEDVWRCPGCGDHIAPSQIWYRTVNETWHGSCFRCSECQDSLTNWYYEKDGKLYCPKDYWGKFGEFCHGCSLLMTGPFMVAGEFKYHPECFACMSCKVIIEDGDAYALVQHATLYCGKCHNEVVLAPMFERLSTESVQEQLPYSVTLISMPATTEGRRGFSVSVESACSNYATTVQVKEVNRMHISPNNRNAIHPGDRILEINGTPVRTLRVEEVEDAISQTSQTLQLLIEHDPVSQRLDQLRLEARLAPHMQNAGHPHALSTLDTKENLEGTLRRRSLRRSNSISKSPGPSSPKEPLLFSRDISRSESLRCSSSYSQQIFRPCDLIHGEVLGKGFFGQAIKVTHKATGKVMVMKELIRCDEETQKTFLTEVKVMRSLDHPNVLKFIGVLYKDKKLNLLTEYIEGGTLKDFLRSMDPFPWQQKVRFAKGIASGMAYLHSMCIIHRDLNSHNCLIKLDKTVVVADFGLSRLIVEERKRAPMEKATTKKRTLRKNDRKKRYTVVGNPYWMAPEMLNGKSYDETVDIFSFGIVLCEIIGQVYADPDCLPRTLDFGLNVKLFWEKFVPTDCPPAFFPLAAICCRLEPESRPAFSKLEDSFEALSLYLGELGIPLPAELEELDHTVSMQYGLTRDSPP
UniProt Q8IWU2: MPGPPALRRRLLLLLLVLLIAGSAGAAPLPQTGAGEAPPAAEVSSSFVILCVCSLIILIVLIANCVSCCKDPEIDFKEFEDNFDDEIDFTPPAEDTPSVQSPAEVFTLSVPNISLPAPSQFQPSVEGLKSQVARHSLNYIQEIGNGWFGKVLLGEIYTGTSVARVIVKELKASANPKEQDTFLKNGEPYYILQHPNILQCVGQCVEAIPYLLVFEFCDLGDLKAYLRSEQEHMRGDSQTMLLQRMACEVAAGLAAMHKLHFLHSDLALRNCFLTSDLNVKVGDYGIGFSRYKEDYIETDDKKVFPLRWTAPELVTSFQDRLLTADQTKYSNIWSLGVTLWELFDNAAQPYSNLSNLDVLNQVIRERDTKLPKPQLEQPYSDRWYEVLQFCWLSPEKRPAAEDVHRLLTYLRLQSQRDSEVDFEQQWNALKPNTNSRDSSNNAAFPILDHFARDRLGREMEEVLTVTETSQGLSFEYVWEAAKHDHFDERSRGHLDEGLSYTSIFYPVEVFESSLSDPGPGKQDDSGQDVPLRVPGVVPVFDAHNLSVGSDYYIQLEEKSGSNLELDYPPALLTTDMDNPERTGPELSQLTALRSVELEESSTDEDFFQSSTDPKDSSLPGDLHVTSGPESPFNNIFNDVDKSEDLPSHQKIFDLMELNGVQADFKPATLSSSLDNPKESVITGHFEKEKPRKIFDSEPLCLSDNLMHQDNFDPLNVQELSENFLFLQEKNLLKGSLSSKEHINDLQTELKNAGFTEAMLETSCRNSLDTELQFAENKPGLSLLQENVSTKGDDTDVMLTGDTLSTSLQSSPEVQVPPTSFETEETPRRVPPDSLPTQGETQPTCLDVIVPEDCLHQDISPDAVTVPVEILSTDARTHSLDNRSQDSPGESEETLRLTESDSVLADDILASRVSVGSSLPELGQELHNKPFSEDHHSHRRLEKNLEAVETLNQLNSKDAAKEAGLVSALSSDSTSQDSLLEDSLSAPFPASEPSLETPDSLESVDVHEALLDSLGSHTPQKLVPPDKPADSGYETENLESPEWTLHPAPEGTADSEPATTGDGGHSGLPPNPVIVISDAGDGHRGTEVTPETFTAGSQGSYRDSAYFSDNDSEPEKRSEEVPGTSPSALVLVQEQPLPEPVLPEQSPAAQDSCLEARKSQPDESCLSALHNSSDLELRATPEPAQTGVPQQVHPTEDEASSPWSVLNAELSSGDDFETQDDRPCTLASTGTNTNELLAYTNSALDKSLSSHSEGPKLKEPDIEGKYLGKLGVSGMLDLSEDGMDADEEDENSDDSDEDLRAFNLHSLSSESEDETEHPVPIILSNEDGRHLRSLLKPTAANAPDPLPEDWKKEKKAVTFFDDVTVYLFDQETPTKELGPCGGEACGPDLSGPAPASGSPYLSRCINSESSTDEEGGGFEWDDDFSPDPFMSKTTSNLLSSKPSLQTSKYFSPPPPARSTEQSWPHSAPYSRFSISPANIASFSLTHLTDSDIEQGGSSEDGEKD
UniProt P07948: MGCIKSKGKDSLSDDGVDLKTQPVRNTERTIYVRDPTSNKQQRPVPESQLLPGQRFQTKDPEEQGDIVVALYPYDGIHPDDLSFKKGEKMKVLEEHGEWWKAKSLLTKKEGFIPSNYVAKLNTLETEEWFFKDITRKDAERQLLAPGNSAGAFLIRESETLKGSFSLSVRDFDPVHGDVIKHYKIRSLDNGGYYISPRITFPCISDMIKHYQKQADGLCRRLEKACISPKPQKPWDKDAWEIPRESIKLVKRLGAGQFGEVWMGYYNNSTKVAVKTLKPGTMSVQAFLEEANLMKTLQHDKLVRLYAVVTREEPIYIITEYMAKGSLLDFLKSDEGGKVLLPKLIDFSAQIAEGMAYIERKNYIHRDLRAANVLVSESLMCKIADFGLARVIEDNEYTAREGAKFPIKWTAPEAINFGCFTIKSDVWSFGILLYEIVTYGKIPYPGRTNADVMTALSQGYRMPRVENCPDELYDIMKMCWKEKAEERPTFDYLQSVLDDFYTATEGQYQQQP
UniProt Q12851: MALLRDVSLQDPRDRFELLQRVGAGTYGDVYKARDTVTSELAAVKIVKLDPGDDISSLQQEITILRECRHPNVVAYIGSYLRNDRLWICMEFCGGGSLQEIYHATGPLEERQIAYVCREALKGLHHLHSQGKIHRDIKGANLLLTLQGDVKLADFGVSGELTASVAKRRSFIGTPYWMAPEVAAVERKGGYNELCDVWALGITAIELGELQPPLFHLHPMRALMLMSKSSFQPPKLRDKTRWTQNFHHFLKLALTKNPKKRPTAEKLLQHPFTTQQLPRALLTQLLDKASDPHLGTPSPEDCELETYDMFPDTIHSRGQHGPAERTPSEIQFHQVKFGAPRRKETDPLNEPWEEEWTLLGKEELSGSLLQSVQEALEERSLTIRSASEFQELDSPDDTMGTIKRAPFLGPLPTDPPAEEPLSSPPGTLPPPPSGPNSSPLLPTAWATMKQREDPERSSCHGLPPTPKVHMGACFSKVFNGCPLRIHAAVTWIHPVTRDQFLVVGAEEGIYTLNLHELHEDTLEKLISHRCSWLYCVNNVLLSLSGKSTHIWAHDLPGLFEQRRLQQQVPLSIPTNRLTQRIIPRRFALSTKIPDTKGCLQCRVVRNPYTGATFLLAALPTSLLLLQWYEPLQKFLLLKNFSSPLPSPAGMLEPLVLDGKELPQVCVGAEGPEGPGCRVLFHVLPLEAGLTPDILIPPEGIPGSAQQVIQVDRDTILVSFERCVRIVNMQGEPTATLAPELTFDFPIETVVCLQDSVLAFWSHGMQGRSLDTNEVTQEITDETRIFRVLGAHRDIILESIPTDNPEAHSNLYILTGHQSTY

Measured: kinase-Nluc reporter destabilization hit call

COc1cc2nc(NC3CC3)nc(NC3CCN(C(C)C)CC3)c2cc1OC (10 µM)
inactive: [1] 0 | [2] 0 | [3] 0 | [4] 0 | [5] 0 | [6] 0 | [7] 0 | [8] 0 | [9] 0 | [10] 0

COc1cc2nccc(Nc3cccc(Oc4ccccc4)c3)c2cc1OC (2.5 µM)
inactive: [1] 0 | [2] 0 | [3] 0 | [4] 0 | [5] 0 | [6] 0 | [7] 0 | [8] 0 | [9] 0 | [10] 0

O=C1NC(=O)C(Cc2c[nH]c3c(Cl)cccc23)N1 (stereo not given) [Necroptosis-IN-1] (10 µM)
inactive: [1] 0 | [2] 0 | [3] 0 | [4] 0 | [5] 0 | [6] 0 | [7] 0 | [8] 0 | [9] 0 | [10] 0
